The record followed here is article doi:10.1101/259481.

Protein sequences, listed by entry. Tags and fused reporters are not part of them. Lines headed by an entry give the natural chain unless they say otherwise; changes in a name come on top. Chains listed by the source or under a name are the forms on record and can include a tag or linker. Residues count along the entry.
UniProt Q99075, residues 63-148: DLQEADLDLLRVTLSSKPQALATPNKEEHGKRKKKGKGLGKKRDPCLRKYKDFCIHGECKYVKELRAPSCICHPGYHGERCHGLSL
UniProt P01138, residues 122-241: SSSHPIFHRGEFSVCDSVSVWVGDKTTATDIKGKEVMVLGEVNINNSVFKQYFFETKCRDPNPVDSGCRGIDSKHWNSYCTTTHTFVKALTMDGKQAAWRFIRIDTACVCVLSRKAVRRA
C-X-C motif ligand (CXCL)-12α (P48061, residues 22-89): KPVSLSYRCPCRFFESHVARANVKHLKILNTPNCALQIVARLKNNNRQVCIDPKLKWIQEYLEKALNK
CXCL-12γ (P48061, form named): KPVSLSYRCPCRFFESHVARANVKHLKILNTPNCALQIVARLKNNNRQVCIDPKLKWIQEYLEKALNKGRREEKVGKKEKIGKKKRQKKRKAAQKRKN
UniProt P05019, residues 49-118: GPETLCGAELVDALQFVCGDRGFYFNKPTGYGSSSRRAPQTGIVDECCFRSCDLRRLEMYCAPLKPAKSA
UniProt P18075, residues 293-431: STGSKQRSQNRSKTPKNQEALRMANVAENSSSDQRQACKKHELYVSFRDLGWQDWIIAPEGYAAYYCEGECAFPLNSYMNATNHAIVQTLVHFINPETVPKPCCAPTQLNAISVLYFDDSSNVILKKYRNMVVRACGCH
UniProt O76093, residues 28-207: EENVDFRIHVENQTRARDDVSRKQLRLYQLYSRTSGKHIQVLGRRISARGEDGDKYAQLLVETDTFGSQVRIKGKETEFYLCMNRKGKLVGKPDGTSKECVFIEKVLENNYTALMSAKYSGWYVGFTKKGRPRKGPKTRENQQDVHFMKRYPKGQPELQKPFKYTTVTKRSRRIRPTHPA
UniProt P05230, residues 16-155: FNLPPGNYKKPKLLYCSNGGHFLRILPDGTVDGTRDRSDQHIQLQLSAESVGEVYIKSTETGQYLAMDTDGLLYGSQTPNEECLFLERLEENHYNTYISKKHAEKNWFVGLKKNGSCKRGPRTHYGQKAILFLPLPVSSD
UniProt P25391: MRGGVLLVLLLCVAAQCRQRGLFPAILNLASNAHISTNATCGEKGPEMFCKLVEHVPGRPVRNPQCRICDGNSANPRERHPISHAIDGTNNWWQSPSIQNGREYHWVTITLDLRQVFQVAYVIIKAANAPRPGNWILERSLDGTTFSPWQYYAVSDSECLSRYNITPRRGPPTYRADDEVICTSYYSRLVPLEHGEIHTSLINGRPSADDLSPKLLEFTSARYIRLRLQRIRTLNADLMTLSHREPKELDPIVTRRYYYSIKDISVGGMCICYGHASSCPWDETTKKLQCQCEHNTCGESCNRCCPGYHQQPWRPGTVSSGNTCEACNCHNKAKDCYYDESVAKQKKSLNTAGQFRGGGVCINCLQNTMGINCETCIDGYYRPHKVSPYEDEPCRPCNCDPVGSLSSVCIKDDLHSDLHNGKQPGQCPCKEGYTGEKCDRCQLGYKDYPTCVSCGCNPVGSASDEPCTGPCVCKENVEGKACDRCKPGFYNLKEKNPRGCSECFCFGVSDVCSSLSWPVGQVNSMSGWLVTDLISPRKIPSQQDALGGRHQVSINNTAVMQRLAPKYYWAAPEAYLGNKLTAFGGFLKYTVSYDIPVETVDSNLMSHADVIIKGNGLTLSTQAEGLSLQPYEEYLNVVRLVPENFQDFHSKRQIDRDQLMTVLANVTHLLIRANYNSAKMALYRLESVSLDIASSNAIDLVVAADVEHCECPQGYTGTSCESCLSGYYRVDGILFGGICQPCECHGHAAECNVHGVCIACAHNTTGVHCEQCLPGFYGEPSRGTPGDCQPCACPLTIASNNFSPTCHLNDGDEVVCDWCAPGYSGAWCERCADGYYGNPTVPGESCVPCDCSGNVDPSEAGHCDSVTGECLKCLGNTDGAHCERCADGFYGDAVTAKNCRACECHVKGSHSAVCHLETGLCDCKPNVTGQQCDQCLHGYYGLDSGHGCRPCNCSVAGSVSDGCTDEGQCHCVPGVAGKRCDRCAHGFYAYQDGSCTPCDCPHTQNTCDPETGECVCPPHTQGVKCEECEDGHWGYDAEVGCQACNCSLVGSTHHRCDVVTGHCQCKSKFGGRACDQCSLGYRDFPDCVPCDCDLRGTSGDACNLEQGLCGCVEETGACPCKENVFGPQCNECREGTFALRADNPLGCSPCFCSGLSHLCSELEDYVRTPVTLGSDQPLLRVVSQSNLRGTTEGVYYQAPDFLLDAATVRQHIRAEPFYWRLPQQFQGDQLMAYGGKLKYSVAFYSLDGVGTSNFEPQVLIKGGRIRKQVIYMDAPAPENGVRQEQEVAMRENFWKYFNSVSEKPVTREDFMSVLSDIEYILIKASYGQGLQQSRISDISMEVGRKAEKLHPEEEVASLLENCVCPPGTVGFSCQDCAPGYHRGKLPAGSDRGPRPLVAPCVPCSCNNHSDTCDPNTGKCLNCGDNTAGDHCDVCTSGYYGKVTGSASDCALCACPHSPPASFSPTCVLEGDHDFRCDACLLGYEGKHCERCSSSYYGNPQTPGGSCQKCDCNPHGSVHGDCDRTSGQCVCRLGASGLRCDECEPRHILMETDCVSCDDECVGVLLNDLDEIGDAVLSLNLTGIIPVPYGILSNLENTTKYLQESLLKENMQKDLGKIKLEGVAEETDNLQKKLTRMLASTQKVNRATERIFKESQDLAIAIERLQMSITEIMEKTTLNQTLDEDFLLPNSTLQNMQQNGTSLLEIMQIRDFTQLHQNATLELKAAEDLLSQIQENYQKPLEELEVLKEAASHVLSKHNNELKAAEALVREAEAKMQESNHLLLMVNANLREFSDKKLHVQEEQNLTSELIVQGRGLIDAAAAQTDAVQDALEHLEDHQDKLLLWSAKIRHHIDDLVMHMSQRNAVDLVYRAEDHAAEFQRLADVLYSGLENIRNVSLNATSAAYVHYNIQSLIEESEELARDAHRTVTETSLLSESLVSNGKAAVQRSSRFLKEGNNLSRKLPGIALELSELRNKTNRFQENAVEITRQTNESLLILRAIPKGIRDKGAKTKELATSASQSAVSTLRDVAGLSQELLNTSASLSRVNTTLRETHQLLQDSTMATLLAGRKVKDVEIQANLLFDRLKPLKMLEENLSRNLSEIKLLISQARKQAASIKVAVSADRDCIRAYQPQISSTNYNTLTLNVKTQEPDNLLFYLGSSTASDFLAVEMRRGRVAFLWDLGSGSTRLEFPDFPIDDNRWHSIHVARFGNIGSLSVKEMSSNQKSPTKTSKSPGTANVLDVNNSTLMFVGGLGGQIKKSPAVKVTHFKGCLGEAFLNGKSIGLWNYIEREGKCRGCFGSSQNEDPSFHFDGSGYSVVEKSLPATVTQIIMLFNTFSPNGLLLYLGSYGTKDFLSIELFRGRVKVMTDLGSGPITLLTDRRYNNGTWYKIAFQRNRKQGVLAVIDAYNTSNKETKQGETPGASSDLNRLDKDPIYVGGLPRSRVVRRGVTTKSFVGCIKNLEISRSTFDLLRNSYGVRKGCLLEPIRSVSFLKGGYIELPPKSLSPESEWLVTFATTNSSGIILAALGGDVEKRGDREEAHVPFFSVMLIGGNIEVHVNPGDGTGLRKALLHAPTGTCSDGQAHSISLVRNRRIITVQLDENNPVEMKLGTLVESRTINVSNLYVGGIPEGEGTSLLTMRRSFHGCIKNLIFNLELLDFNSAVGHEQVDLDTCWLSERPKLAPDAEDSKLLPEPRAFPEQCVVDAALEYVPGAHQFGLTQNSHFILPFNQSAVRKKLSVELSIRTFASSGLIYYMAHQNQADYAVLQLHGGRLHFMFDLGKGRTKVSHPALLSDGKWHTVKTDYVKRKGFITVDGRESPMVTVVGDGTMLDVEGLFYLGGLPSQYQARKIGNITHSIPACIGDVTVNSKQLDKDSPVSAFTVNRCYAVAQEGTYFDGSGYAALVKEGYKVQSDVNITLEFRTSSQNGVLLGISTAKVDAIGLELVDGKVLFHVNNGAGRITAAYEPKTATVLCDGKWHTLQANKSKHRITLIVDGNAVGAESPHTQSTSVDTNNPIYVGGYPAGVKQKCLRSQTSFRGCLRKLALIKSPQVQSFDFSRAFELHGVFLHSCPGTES
UniProt Q16363: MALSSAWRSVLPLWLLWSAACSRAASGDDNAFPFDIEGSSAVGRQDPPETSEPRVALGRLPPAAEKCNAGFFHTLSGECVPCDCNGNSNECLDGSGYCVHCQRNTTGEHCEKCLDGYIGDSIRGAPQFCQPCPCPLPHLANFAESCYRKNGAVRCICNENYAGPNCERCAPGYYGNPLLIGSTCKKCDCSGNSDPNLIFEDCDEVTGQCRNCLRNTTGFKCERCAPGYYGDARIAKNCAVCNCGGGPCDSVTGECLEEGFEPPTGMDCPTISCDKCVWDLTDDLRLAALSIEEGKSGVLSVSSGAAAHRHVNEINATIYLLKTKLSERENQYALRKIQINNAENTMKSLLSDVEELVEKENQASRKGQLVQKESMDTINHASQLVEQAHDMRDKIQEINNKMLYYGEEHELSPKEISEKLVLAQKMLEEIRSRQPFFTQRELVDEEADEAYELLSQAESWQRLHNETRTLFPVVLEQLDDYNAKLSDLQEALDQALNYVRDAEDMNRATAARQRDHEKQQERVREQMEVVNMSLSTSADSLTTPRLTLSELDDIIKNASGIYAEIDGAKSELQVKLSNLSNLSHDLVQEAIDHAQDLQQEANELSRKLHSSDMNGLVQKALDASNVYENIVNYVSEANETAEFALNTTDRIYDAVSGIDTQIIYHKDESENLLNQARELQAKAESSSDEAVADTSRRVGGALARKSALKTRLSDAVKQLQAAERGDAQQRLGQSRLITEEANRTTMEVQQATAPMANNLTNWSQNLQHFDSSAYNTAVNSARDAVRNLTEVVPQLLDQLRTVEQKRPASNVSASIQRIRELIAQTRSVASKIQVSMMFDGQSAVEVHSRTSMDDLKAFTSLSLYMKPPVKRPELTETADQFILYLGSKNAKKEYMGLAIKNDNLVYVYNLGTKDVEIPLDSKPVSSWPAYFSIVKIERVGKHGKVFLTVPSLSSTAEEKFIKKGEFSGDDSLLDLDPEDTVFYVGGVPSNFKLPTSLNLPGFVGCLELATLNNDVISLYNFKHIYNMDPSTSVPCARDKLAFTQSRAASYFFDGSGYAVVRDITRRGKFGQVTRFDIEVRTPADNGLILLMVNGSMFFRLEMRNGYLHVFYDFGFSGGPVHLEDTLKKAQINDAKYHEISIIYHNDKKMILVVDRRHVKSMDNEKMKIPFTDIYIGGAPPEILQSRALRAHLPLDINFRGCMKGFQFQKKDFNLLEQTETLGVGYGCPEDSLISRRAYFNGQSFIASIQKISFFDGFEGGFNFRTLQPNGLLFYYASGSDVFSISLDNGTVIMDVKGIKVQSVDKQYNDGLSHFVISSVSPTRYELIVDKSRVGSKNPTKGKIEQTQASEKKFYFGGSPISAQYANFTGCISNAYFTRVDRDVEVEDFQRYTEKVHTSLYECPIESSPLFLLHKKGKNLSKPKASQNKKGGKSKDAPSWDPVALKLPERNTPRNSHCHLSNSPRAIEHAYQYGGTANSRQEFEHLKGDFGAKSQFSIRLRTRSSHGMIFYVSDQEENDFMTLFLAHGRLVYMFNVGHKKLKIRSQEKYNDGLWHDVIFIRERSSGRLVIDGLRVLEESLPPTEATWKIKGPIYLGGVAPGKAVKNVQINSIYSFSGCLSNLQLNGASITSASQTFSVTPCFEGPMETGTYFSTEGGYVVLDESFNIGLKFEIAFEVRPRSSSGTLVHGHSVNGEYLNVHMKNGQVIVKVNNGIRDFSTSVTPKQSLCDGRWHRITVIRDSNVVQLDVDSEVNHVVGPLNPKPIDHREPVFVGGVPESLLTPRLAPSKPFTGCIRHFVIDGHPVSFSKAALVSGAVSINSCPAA

Results are given in words; binding and its absence hold for the method and conditions named. Some entries that bind do so weakly or less than the wild type.

Common to all, as to assay: ELISA
(ELISA stands for enzyme-linked immunosorbent assay.)

For assay [1], the target named is heparin-binding epidermal growth factor (HB-EGF) (UniProt Q99075).
For assay [2], the target named is T1, C-X-C motif ligand (CXCL)-11 (UniProt O14625).
T1 sequence: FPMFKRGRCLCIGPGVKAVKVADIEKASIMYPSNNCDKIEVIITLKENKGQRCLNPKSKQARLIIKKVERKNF

Assay [3] addresses T2, fibroblast growth factor (FGF)-6 (UniProt P10767).
T2 sequence: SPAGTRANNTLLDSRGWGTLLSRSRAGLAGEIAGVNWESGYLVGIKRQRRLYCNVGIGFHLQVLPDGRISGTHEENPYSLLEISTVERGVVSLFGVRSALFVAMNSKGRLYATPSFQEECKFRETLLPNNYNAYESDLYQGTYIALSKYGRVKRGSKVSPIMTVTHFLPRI

Assay [4] deals with β-nerve growth factor (NGF) (UniProt P01138).
In the next assay the target is CXCL-12γ (UniProt P48061).
Assay [5] deals with T3, fibroblast growth factor (FGF)-7 (UniProt P21781).
T3 sequence: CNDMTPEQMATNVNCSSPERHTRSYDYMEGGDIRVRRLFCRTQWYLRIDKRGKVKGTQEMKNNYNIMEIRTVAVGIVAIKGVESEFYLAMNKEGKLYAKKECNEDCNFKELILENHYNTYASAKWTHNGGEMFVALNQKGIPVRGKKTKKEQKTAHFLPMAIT

Assay [6] concerns the target insulin-like growth factor (IGF)-1 (UniProt P05019).
The target in assay [7] is T4, bone morphogenetic protein (BMP)-2 (UniProt P12643).
T4 sequence: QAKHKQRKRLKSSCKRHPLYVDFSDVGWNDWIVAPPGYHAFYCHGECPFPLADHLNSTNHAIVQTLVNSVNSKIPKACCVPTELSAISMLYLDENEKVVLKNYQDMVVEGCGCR

Assay [8] concerns the target bone morphogenetic protein (BMP)-7 (UniProt P18075).
In assay [9] the target is T5, bone morphogenetic protein (BMP)-4 (UniProt P12644).
T5 sequence: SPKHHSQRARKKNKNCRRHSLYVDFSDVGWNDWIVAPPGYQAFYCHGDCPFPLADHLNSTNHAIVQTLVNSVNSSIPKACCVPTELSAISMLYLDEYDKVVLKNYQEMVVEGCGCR

The target in the next assay is T6, neurotrophin (NT)-3 (UniProt P20783).
T6 sequence: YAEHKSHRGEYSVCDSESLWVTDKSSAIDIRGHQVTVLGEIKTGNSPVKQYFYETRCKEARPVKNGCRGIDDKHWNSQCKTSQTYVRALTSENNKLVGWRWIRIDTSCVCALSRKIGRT

In assay [10] the target is fibroblast growth factor (FGF)-18 (UniProt O76093).
Assay [11] has as its target T7, fibroblast growth factor (FGF)-10 (UniProt O15520).
T7 sequence: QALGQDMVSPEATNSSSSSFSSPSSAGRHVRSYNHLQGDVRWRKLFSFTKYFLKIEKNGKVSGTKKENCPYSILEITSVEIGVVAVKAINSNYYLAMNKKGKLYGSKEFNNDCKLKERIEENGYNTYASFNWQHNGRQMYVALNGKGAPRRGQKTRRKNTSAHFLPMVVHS

The target of assay [12] is fibroblast growth factor (FGF)-1 (UniProt P05230).
Assay [13] has as its target C-X-C motif ligand (CXCL)-12α (UniProt P48061).
In assay [14] the target is T8, placental growth factor (PlGF)-1 (human) (UniProt P49763).
T8 sequence: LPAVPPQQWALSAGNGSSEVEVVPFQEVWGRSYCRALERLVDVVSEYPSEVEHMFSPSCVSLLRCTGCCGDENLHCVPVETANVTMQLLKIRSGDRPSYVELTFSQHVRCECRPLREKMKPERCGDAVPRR

Assay [15] concerns the target T9, bone morphogenetic protein (BMP)-3 (UniProt P12645).
T9 sequence: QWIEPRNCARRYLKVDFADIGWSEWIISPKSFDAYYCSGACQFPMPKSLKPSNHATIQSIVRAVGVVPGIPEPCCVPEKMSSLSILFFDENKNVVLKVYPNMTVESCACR

For “laminin-111 (from UniProt P25391 18-3075; P07942 22-1786; P11047 34-1609) (complex)”, the binding result is given as “binds weakly” in [1]; “no binding (tested: 10 nM)” in [2]; “no binding (tested: 10 nM)” in [3]; “binds weakly” in assay [4]; “binds” in the assay with CXCL-12γ; “binds” in assay [5]. For the same substance, the binding entry in [6] is given as “no binding (tested: 10 nM)”; in assay [7] it was “binds”; in [8], “no binding (tested: 10 nM)”; in assay [9], “no binding (tested: 10 nM)”; with neurotrophin (NT)-3, “binds”; in assay [10], “binds”. The binding result in [11] was “binds”; in assay [12] it was “no binding (tested: 10 nM)”; in [13], “no binding (tested: 10 nM)”; in assay [14] it was “no binding (tested: 10 nM)”; in [15], “binds”.

Consider “laminin-211 (from UniProt P24043 23-3122; P07942 22-1786; P11047 34-1609) (complex)”, for which the binding entry in assay [1] is recorded as “binds weakly”; in [2], “no binding (tested: 10 nM)”; in assay [3] it was “no binding (tested: 10 nM)”; in assay [4] it was “binds weakly”; with CXCL-12γ, “binds”; in assay [5] it was “binds”. Also, the binding entry in assay [6] is reported as “no binding (tested: 10 nM)”; in assay [7], “binds”; in [8] it was “no binding (tested: 10 nM)”; in assay [9] it was “no binding (tested: 10 nM)”; with neurotrophin (NT)-3, “binds”; in assay [10] it was “binds”. The binding result in [11] is given as “binds”; in [12] it was “no binding (tested: 10 nM)”; in assay [13], “no binding (tested: 10 nM)”; in [14] it was “no binding (tested: 10 nM)”; in assay [15], “binds”.

In the case of “laminin-411 (from UniProt Q16363 25-1823; P07942 22-1786; P11047 34-1609) (complex)”, the binding result is given as “binds weakly” in assay [1]; “no binding (tested: 10 nM)” in assay [2]; “no binding (tested: 10 nM)” in assay [3]; “binds weakly” in assay [4]; “binds” with CXCL-12γ; “binds” in assay [5]. Further, the binding entry in [6] was “no binding (tested: 10 nM)”; in [7] it was “binds”; in assay [8], “no binding (tested: 10 nM)”; in [9] it was “no binding (tested: 10 nM)”; with neurotrophin (NT)-3, “binds”; in assay [10], “binds”. The binding entry in assay [11] is “binds”; in [12], “no binding (tested: 10 nM)”; in [13], “no binding (tested: 10 nM)”; in assay [14] it was “no binding (tested: 10 nM)”; in assay [15], “binds”.

Take “laminin-421 (from UniProt Q16363 25-1823; P55268 33-1798; P11047 34-1609) (complex)”: the binding result is “binds weakly” in [1]; “no binding (tested: 10 nM)” in assay [2]; “no binding (tested: 10 nM)” in assay [3]; “binds weakly” in assay [4]; “binds” with CXCL-12γ; “binds” in assay [5]. For the same substance, the binding entry is “no binding (tested: 10 nM)” in [6]; “binds” in assay [7]; “no binding (tested: 10 nM)” in [8]; “no binding (tested: 10 nM)” in assay [9]; “binds” in the assay with neurotrophin (NT)-3; “binds” in [10]. Also, the binding result in [11] is listed as “binds”; in assay [12], “no binding (tested: 10 nM)”; in assay [13], “no binding (tested: 10 nM)”; in assay [14], “no binding (tested: 10 nM)”; in assay [15], “binds”.

Take “laminin-511 (from UniProt O15230 36-3695; P07942 22-1786; P11047 34-1609) (complex)”: the binding entry in [1] is listed as “binds weakly”; in assay [2] it was “no binding (tested: 10 nM)”; in [3], “no binding (tested: 10 nM)”; in assay [4], “binds weakly”; with CXCL-12γ, “binds”; in assay [5], “binds”. In addition, the binding entry was “no binding (tested: 10 nM)” in [6]; “binds” in assay [7]; “no binding (tested: 10 nM)” in assay [8]; “no binding (tested: 10 nM)” in [9]; “binds” with neurotrophin (NT)-3; “binds” in assay [10]. For the same substance, the binding result in assay [11] is given as “binds”; in assay [12], “no binding (tested: 10 nM)”; in [13], “no binding (tested: 10 nM)”; in assay [14] it was “no binding (tested: 10 nM)”; in assay [15] it was “binds”.
